The experiment concerns scopolamine-treated mice. Briefly: Scopolamine-induced memory impairment, passive avoidance test. The format is in vivo. As to conditions: scopolamine (1 mg/kg) alone.

The source of these data is paper PMC4501038 (RSC advances, 2015).

Structures can show the parent of a compound that is named as a salt.

The compound `CN1[C@@H]2C[C@@H](OC(=O)[C@H](CO)c3ccccc3)C[C@H]1[C@@H]1O[C@@H]12` [scopolamine, scopolamine hydrobromide] came in with a retention trial latency of 39.9 ± 7.8 s.
